No constants are given. Whether binding was seen depends on the method and setting. Some binding calls cover weakened binding; strength is not graded here.
Assays:
[1] = target: Chordin, full-length, mouse (mouse) (UniProt Q9Z0E2); test: SPR; BIAcore; BMP2/Chordin binding in the presence of CV2-T5P/I21R; not shown; both purified
[2] = target: Chordin, full-length, mouse (mouse) (UniProt Q9Z0E2); test: co-IP; recombinant His6-tagged Chordin and His6-tagged CV2-T5P/I21R mixed, then BMP2; anti-His-tag antibody and protein A Sepharose; not shown; both purified
[3] = target: Chordin, full-length, mouse (mouse) (UniProt Q9Z0E2); test: SPR; BIAcore; Chordin immobilised; 500, 1000 and 3000 nM CV2 ΔClip perfused for 120 seconds, then the same concentration of CV2 ΔClip plus 100 nM BMP2; 100 nM BMP2 alone as positive control; both purified
[4] = target: Chordin, full-length, mouse (mouse) (UniProt Q9Z0E2); test: co-IP; recombinant His6-tagged Chordin and His6-tagged CV2 ΔClip mixed in 200 µl binding buffer for 1h at 4°C, then BMP2 for 1h at 4°C; precipitated with anti-His-tag antibody and protein A Sepharose; BMP2 detected by blot; both purified

Sequences of proteins named here, by UniProt entry; tags and fusion partners are left off. Residues count along the entry.
UniProt Q9Z0E2, residues 27-948: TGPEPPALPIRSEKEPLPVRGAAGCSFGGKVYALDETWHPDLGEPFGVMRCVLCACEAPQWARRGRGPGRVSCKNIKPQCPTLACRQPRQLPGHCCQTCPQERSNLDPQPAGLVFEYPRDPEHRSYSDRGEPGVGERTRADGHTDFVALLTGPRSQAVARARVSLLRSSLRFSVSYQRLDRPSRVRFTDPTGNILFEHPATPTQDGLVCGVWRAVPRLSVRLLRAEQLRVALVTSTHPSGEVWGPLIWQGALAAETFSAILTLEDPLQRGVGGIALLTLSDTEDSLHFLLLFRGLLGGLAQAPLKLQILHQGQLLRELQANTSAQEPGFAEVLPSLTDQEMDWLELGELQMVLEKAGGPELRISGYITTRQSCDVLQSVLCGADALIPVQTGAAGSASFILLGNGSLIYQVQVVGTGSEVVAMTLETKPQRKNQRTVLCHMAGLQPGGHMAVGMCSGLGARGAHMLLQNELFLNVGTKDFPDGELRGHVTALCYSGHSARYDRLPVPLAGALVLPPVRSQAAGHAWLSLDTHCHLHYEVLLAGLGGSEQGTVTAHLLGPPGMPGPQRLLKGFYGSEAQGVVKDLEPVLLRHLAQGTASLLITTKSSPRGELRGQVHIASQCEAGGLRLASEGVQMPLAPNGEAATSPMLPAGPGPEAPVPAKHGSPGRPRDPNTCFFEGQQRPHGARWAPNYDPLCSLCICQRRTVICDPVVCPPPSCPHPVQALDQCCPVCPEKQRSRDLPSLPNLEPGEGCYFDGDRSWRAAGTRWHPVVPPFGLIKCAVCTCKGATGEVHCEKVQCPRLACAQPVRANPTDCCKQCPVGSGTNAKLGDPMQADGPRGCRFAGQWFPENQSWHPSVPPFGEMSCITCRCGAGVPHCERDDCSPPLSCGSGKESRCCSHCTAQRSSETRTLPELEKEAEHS

Measured: binding

B1: BMP2, human (ligand, UniProt P12643 283-396)
chain: QAKHKQRKRLKSSCKRHPLYVDFSDVGWNDWIVAPPGYHAFYCHGECPFPLADHLNSTNHAIVQTLVNSVNSKIPKACCVPTELSAISMLYLDENEKVVLKNYQDMVVEGCGCR
binds: all assays above
